We go through two substances from PMC6965636.

Protein sequences, listed by entry. Tags and fused reporters are not part of them.
UniProt O15379: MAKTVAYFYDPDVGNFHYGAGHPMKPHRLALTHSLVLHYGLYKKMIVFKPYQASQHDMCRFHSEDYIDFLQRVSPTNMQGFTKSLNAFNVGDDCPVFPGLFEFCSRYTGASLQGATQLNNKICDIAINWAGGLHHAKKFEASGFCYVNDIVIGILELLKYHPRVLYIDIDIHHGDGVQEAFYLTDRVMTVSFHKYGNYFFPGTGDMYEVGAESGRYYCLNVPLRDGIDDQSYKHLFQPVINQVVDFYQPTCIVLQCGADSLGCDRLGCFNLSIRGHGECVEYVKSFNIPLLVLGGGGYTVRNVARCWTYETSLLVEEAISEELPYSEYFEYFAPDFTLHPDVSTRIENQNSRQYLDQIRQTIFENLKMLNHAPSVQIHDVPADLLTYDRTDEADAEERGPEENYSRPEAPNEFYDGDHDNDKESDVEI
UniProt P42224: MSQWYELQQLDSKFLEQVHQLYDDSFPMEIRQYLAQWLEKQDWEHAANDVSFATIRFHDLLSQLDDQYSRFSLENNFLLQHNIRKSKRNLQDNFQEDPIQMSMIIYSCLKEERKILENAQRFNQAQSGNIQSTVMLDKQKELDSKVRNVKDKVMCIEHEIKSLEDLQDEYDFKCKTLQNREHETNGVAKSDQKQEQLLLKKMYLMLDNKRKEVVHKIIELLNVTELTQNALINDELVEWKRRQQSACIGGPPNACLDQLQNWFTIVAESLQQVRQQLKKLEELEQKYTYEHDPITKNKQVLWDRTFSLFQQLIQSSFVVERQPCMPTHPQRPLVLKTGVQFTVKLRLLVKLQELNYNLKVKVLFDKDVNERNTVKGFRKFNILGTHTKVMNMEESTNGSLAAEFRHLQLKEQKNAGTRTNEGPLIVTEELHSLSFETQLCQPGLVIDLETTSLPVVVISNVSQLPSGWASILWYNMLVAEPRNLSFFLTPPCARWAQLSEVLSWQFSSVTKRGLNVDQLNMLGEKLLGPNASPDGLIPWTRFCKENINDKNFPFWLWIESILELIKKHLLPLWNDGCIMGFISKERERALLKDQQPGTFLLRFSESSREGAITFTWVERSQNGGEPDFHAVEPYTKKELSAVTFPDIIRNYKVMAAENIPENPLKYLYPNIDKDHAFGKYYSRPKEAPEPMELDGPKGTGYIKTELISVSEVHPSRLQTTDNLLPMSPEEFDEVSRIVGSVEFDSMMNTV

The experiment deals with T1, TKT-Flag (UniProt P29401).
T1 sequence: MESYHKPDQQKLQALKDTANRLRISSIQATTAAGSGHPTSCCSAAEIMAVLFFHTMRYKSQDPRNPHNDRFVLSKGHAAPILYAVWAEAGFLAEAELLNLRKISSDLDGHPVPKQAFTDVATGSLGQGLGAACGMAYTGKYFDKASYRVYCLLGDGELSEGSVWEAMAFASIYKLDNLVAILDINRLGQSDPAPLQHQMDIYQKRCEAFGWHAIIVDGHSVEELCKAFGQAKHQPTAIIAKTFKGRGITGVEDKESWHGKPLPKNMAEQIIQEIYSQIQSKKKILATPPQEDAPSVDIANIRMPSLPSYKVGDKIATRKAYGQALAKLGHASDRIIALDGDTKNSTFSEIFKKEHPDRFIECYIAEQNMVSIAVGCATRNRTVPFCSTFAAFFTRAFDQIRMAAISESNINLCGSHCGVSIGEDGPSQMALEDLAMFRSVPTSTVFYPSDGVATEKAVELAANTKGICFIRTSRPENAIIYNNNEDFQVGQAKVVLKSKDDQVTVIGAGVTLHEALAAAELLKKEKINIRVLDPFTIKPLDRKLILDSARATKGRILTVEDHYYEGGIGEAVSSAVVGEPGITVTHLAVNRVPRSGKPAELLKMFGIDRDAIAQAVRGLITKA
The experiment is described as follows: affinity purification with mass spectrometry; SMMC-7721 cell lysates immunoprecipitated with the anti-Flag antibody and normal rabbit IgG (NC), SDS-PAGE, silver staining, mass spectrometry.

Results are given in words; binding and its absence hold for the method and conditions named. Binding seen in cells or lysates may run through a third protein. These calls come from enrichment with a bait or labelling near it, and not all partners need be listed. Sequences can lack the tags named with a protein.

In the case of “histone deacetylase 3 (HDAC3), endogenous (from UniProt O15379 1-428) (enzyme)”, the binding entry was “binds”.

Consider “signal transducer and activator of transcription 1 (STAT1), endogenous (from UniProt P42224 1-750)”, for which the binding entry is reported as “binds”.
